This assay deals with SPT complex with the ALS-associated SPTLC1 variant Y23A (human). In words: co-purification (anti-Flag affinity resin, then SEC; Coomassie-stained SDS-PAGE); subunits co-expressed in HEK293F; membranes solubilized with 1% GDN; anti-Flag G1 resin, elution with Flag peptide, Superose 6 in 25 mM HEPES pH 7.5, 150 mM NaCl, 0.01% GDN; which subunit carries the Flag tag is not stated.

These are yes or no findings as the source states them, for the method shown. In cells and extracts the contact can be indirect. A result given as binding can be weak or reduced; the word gives no strength.

B1: ORMDL3 (full-length, wild type) (natural protein, human, UniProt Q8N138 1-153, looked up)
chain: MNVGTAHSEVNPNTRVMNSRGIWLSYVLAIGLLHIVLLSIPFVSVPVVWTLTNLIHNMGMYIFLHTVKGTPFETPDQGKARLLTHWEQMDYGVQFTASRKFLTITPIVLYFLTSFYTKYDQIHFVLNTVSLMSVLIPKLPQLHGVRIFGINKY
notes: ORMDL3, human, codon-optimized full-length cDNA in pCAG (new ORMDL3-FL plasmid without the 14 extra nucleotides upstream of the ORF); cDNAs were cloned 'with an N-terminal Flag tag or without a tag'; also called ORMDL3-FL; WT ORMDL3; source: HEK293F, transiently co-transfected with the SPT subunits, purified as a complex (anti-Flag resin, SEC, GDN)
For B1, the binding result was “binds”.

The values are drawn from publication PMC10261145, “Ceramide sensing by human SPT-ORMDL complex for establishing sphingolipid homeostasis” (Nature Communications, 2023).
